{
  "source": "patent US20250003952A1",
  "about": "“SENOLYTIC DRUG SCREENING METHOD AND SENOLYTIC DRUG” (KYOTO UNIVERSITY, priority 2021, published 2025)",
  "test_system": "IMR90 cells",
  "test": "Secondary screening: senolytic activity, young vs senescent IMR90 cells, crystal violet",
  "type": "cell-based, human",
  "conditions": "young vs Ras-induced senescent IMR90 cells; 5 μM and 10 μM; 72 hours; criterion of positivity 1.14 or more",
  "description": "In the secondary screening, the agent sensitivity of young IMR90 cells and senescent IMR90 cells was compared. The senescent IMR90 cells were prepared by inducing an oncogenic Ras mutation. The young cells and the senescent cells were each seeded in a 96-well plate, and two days later, the candidate drugs obtained from the primary screening were treated at two concentrations of 5 μM and 10 μM. Surviving cells after 72 hours were fixed with formalin and stained with crystal violet. After that, crystal violet in each well was extracted with 2% Triton X100 and quantified (FIG. 31-1 and FIG. 31-2). Young cells and senescent cells were each treated with a solvent (DMSO), and the resulting cells were used as a negative control, and the survival rate compared to the negative control was calculated by the following expression. Furthermore, the agent sensitivity of the young cells and the senescent cells was compared and evaluated as senolytic activity (young cell viability/senescent cell viability). The criterion of positivity was a senolytic activity of 1.14 or more.\nViability(%)=(Sample/negative subject)×100\nSenolytic activity=young cell viability/senescent cell viability",
  "note": "At least one compound was matched to its structure with a doubt left.",
  "data": [
    {"smiles": "O=c1cc(-c2ccccc2)oc2cc(O)cc(O)c12", "note": "[Chrysin]", "values": [
      {"measurement": "senolytic activity (young cell viability/senescent cell viability)", "value": "have senolytic activity"}
    ]},
    {"smiles": "COc1ccc(Cl)c(Nc2nc3ccccc3nc2NS(=O)(=O)c2cccc(NC(=O)C(C)(C)N)c2)c1", "note": "[XL147]", "values": [
      {"measurement": "senolytic activity (young cell viability/senescent cell viability)", "value": "have senolytic activity"}
    ]}
  ]
}
